Results on one molecule are retold here after article PMC3068154.

The target in the assay is T1, Beclin1 (mouse (endogenous in heart)), O88597.
T1 chain: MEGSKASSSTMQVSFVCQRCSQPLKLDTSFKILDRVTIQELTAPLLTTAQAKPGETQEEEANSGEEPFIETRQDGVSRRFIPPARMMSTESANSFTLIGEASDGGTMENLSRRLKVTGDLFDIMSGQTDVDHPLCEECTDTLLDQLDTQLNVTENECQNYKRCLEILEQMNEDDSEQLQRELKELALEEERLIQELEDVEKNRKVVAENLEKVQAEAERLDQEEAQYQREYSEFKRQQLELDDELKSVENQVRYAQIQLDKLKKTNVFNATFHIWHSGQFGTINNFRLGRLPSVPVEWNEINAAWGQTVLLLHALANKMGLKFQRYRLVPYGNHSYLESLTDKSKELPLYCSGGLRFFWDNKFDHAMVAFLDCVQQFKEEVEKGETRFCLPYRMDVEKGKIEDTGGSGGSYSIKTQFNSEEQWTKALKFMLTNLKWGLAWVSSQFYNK
Put plainly: co-IP; anti-Beclin1 immunoprecipitates (250 µg protein, antibody 2.5 µg/ml, protein G agarose beads, 2 h at 4°C, washed five times with lysis buffer), Bcl-2 detected by immunoblot; cardiac mitochondria from WT and p53(-/-) mice treated with saline or DOX (20 mg/kg, three days). The note with it: remark: other sources report otherwise.

No constants are given. Whether binding was seen depends on the method and setting. Binding seen in cells or lysates may run through a third protein. Some binding calls cover weakened binding; strength is not graded here.

B1: Bcl-2, P10417 1-236 (protein)
chain: MAQAGRTGYDNREIVMKYIHYKLSQRGYEWDAGDADAAPLGAAPTPGIFSFQPESNPMPAVHRDMAARTSPLRPLVATAGPALSPVPPVVHLTLRRAGDDFSRRYRRDFAEMSSQLHLTPFTARGRFATVVEELFRDGVNWGRIVAFFEFGGVMCVESVNREMSPLVDNIALWMTEYLNRHLHTWIQDNGGWDAFVELYGPSMRPLFDFSWLSLKTLLSLALVGACITLGAYLGHK
Regarding B1, the binding entry is “binds”.
